In PubChem BioAssay AID434947 (Broad Institute, 2010):
Hit rate of the full screen: of about 2,200 compounds, about 15 (0.7%) were called active.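 Rule for the calls: active = fitted half-maximal concentration for loss of luminescence signal no more than a set limit of log units above the top tested concentration; inconclusive = flat fit with 30 to 70% signal loss, or invalid fit; inactive = half-maximal concentration above that set limit.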 Some of the results follow.

Experiment: inhibitors of ADP-Glo detection reagents, dose response, artefact control for GSK3beta inhibitor project, biochemical, luminescence, cell-free, homogeneous (AID 434947)
Settings: 5 uM ADP

EC50, inactive:
COc1ccc(Nc2nc(N)c(C(=O)c3ccc(F)cc3)s2)cc1 > 30 µM
CC(/C=N/NC(=O)c1nnn(-c2nonc2N)c1CN1CCCCC1)=C\c1ccccc1 > 30 µM
Cc1cc(NC(=O)/C=C/c2cccc(F)c2)n(-c2nc3ccccc3[nH]2)n1 > 30 µM
COc1cc(/C=N/NC(=O)c2ccncc2)ccc1Oc1ccc([N+](=O)[O-])cn1 > 30 µM
CN(C)CCCNc1nc(N)c([N+](=O)[O-])c(NCCO)n1 > 30 µM
CCSc1nnc(-c2ccncc2)o1 > 30 µM
CC1CCCN(S(=O)(=O)c2ccc(Br)s2)C1 (configuration not stated) > 30 µM
COc1ccc2nc(NC(=O)CCNC(=O)c3ccccc3Cl)sc2c1 > 30 µM
COc1ccc(C(C)(C)C)cc1NS(=O)(=O)c1cccc2cccnc12 > 30 µM
CC(C)(C)C(=O)c1sc(Nc2ccccc2)nc1N > 30 µM
COc1cccc(-c2ccc3nnc(SCC(=O)Nc4ccc(NC(C)=O)cc4)n3n2)c1 > 30 µM
CC(=O)N1CCc2c(sc(NC(=O)CN3C(=O)c4ccccc4C3=O)c2C(N)=O)C1 > 30 µM
COc1cccc(C2C3=C(CC(C)(C)CC3=O)Nc3cc4c(cc32)OCO4)c1 (configuration not stated) > 30 µM
COc1ccc(OC)c(CCNC(=O)c2ccc3c(=O)[nH]c4c(C(=O)NC(C)C)sc(=S)n4c3c2)c1 > 30 µM
COc1cccc2cc(C(=O)CS(=O)(=O)c3ccc(Cl)cc3)c(=O)oc12 > 30 µM
CCSc1nc(-c2ccccc2)c(C#N)c(=O)[nH]1 > 30 µM
CCC(NC(=O)Cc1c(C)c2cc3c(cc2oc1=O)OC(C)(C)CC3)C(=O)O (configuration not stated) > 30 µM
Nc1nc(NCC2CCCO2)nc(Nc2ccccc2F)c1[N+](=O)[O-] (configuration not stated) > 30 µM
O=C(O)c1cc(-c2ccc(/C=N/Nc3ccc(Cl)cc3)o2)ccc1Cl > 30 µM
Cc1ccc(OCC(=O)N/N=C\c2ccc(O)c([N+](=O)[O-])c2)c([N+](=O)[O-])c1 > 30 µM
COCCCNc1nc(N)c([N+](=O)[O-])c(Nc2cc(OC)ccc2OC)n1 > 30 µM
Nc1nc(NCCc2ccccc2)nc(NCCO)c1[N+](=O)[O-] > 30 µM
CCOC(=O)C(CC)Sc1ncnc2nc[nH]c12 (configuration not stated) > 30 µM
CN(Cc1ccccc1)S(=O)(=O)c1ccc2c(c1)NC(=O)CC(=O)N2 > 30 µM
CN(C)c1nc2c(N)ncnc2n1[C@H]1O[C@@H](CO)[C@H](O)[C@@H]1O > 30 µM
CCCN(CCC)c1nc(N)nc(-c2cc(Cl)ccc2OC)n1 > 30 µM
COc1cccc(C2C(C(=O)OCc3ccccc3)=C(C)Nc3ncnn32)c1OC (configuration not stated) > 30 µM
Cc1ccnc(NC(=O)C(C)n2cc([N+](=O)[O-])cn2)c1 (configuration not stated) > 30 µM
CC(c1ccccc1)n1c(CCCO)nc2ccccc21 (configuration not stated) > 30 µM
O=C1CN(C(=O)c2ccco2)c2ccccc2N1 > 30 µM
C=C1CSc2nc(=O)c3c4c(sc3n21)CCCC4 > 30 µM
Cc1ccc(C(=O)N/N=C\c2ccc(-c3ccc([N+](=O)[O-])cc3)o2)cn1 > 30 µM
c1cncc(-c2nc(NCC3CCCO3)c3ccccc3n2)c1 (configuration not stated) > 30 µM
COc1ccc(C2C3=C(CCCC3=O)Nc3n[nH]c(C)c32)cc1OC (configuration not stated) > 30 µM
CN=C(C)/C(C(=O)OC)=C(/O)c1ccc(Cl)cc1Cl > 30 µM
Cc1ccc(Nc2nc(NCC3CCCO3)nc(N)c2[N+](=O)[O-])cc1C (configuration not stated) > 30 µM
COCCNc1nc(N)c([N+](=O)[O-])c(NCC2CCCO2)n1 (configuration not stated) > 30 µM
Cc1cc(NC(=O)CSc2ccc3nnc(-c4ccc(F)cc4)n3n2)no1 > 30 µM
CC(C)N1C(=O)N(c2ccc(Cl)cc2)C(C)(O)CC1(C)C (configuration not stated) > 30 µM
COC(=O)c1nnn(-c2nonc2N)c1CN1CCc2ccccc21 > 30 µM
COc1cccc(NC2=CC(=O)CC(C)(C)C2)c1 > 30 µM
Cc1ccc([N+](=O)[O-])cc1N=C1C(=O)Nc2ccccc21 > 30 µM
Cn1c(=O)[nH]c(=O)c2c1nc1n2CCCS1 > 30 µM
Nc1nonc1-n1nnc(C(=O)N/N=C/c2ccccc2Cl)c1CN1CCOCC1 > 30 µM
Cc1ccc(SCc2c(C(=O)N/N=C/c3ccoc3)nnn2-c2nonc2N)cc1 > 30 µM
O=C1NC(=NCc2ccccc2)S/C1=C/c1ccc(O)cc1 > 30 µM
COc1nc(N(C)C)nc(N(C#N)CCOC(C)=O)n1 > 30 µM
CCn1c(SCC(=O)Nc2ccc(F)cc2)nnc1C1CC1 > 30 µM
CC1(C)CC(=O)C2=C(C1)Nc1cc3c(cc1C2c1ccc(F)cc1)OCO3 (configuration not stated) > 30 µM
Cc1ccc(Nc2nc(NCCCN3CCOCC3)nc(N)c2[N+](=O)[O-])cc1C > 30 µM
COc1ccc(-c2nn(-c3ccccc3)cc2/C=N/Nc2ccc3ccccc3n2)cc1OC > 30 µM
CNc1nc(N)c([N+](=O)[O-])c(Nc2cccc(F)c2)n1 > 30 µM
Cc1ccc(N2CC(C(=O)NCCCn3ccnc3)CC2=O)cc1 (configuration not stated) > 30 µM
COc1ccc(Nc2nc(N)nc(CSc3nncn3C)n2)cc1 > 30 µM
Cn1ncc(Br)c1C(=O)Nc1cccc(C(F)(F)F)c1 > 30 µM
COc1ccc(C(=O)OCCc2ccc(O)cc2)cc1 > 30 µM
COc1ccc(OC)c(C(=O)c2coc3ccc(O)c(CN(C)C)c23)c1 > 30 µM
O=C(CCS(=O)(=O)c1ccccc1)Nc1ncc([N+](=O)[O-])s1 > 30 µM
O=C(COc1cccc2cccnc12)N/N=C/c1ccc(O)cc1 > 30 µM
CC(C)Nc1nc(-c2ccncc2)nc(-c2ccccc2)c1C#N > 30 µM
CN(C)Cc1c(O)ccc2c1O/C(=C\C=C\c1ccccc1)C2=O > 30 µM
CCOC(=O)N1CCN(S(=O)(=O)c2cc(Br)cc3c2N(C(=O)C2CC2)CC3)CC1 > 30 µM
CC(NC(=O)/C=C/c1ccco1)c1nc2ccccc2n1Cc1ccccc1F (configuration not stated) > 30 µM
CC(=O)Nc1ccc(Cc2nc3c([nH]2)c(=O)n(C)c(=O)n3C)cc1 > 30 µM
CCN(CC)CCCNc1nc(N)c([N+](=O)[O-])c(NCCO)n1 > 30 µM
c1csc(C2=Nn3c(nnc3-c3ccncc3)SC2)c1 > 30 µM
O=C(OCCCN1CCCCC1)c1ccc(O)cc1 > 30 µM
COc1cccc(C(=O)Nc2nnc(C(C)C)s2)c1 > 30 µM
COc1cccc(C2CC(c3ccc(Cl)cc3)n3nc(N)nc3N2)c1 (configuration not stated) > 30 µM
Oc1ccc(/C=N/Nc2ccc(C(F)(F)F)cn2)cc1O > 30 µM
FC(F)(F)COc1ccc(-n2ccnc2)nn1 > 30 µM
Cc1ccc2nc3c(cc2c1)c(NC(=O)C(C)(C)C)nn3CC(C)C > 30 µM
COc1ccc(OC)c(Nc2nc(N)c([N+](=O)[O-])c(NCc3ccccc3)n2)c1 > 30 µM
CC(=O)Nc1ccc(S(=O)(=O)NCc2ccc(C)n2C)cc1 > 30 µM
CCCCn1nc(NC(=O)CCC)c2cc3cc(OC)ccc3nc21 > 30 µM
CC(=O)c1cccc(S(=O)(=O)NC2CCSc3ccccc32)c1 (configuration not stated) > 30 µM
COC(=O)c1nnn(-c2nonc2N)c1CSc1ccc(Cl)cc1 > 30 µM
CCOC(=O)c1cnc2ccc(Cl)cc2c1Nc1ccc(S(=O)(=O)Nc2ncccn2)cc1 > 30 µM
C[C@H](NC(=O)[C@@H]1CSC2c3ccccc3C(=O)N21)C(=O)NCc1c(F)cccc1Cl (some centres not stated) > 30 µM
c1cncc(-c2nc(NCc3ccco3)c3ccccc3n2)c1 > 30 µM
O=C(CN1C(=O)CCC1=O)Nc1ccc(Br)cc1 > 30 µM
COc1ccc(-c2c(C)n([O-])c(C)c(C)[n+]2=O)cc1 > 30 µM
CC1=C(C(=O)OCc2ccccc2)C(c2cccnc2)n2ncnc2N1 (configuration not stated) > 30 µM
Nc1nonc1-n1nnc(C(=O)N/N=C/c2ccccc2O)c1CN1CCCC1 > 30 µM
O=C(Nc1cccnc1)Nc1ccccn1 > 30 µM
CCC(=O)Nc1ccc(Nc2nc(C)c([N+](=O)[O-])c(Nc3ccc(NC(=O)CC)cc3)n2)cc1 > 30 µM
Cc1cccc(Nc2nc(N)c([N+](=O)[O-])c(N3CCOCC3)n2)c1 > 30 µM
COc1ccc(C(=O)c2sc(Nc3ccccc3F)nc2N)cc1 > 30 µM
C=CCOc1ccc(/C=N/Nc2ccccn2)cc1OC > 30 µM
c1ccc(CNc2ncnc3scc(-c4cccs4)c23)nc1 > 30 µM
Cc1ccnc(NC(=O)Cn2ccc([N+](=O)[O-])n2)c1 > 30 µM
O=C(CCCC1=NS(=O)(=O)c2ccccc2N1)Nc1ccccc1 > 30 µM

Entries shown so far that contain a COOH group:
EC50, inactive:
CCC(NC(=O)Cc1c(C)c2cc3c(cc2oc1=O)OC(C)(C)CC3)C(=O)O (configuration not stated) > 30 µM
O=C(O)c1cc(-c2ccc(/C=N/Nc3ccc(Cl)cc3)o2)ccc1Cl > 30 µM
